# Taken from: PubChem BioAssay AID1224830 (NIAID, 2016)
# Assay: 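Genes whose knock-down alters the TNF-alpha reporter response to LPS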 (primary screen)
# Cells: human THP-1 monocytic leukaemia cells, TNF dual-luciferase reporter clone, PMA-differentiated to macrophage-like cells
# Reagents: siRNA pool against human genes, 50 nM
# Timing: LPS for 4 h, given about 3 days after siRNA transfection
# Treatment: bacterial LPS (TLR4 ligand), 10 ng/ml
# Measurement: 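TNF firefly reporter luminescence divided by renilla, normalised to the plate median, then turned into a robust z-score for each replicate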
# Scale: TNF reporter robust z-score: higher = stronger TNF reporter response to LPS
# Call rule: 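Each well counts as active if its z-score is over 2.8 or under -1.5; controls are left without a call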
# This is a random part of about 18,000 deposited reagents. About 2,900 of all reagents (16%) were called active. 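Calls are made per well; low scores hint the gene aids the LPS response, high scores that it dampens it.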 A number with no mark means an inactive call. Repeated entries: four replicate wells of each siRNA pool.
gene,TNF reporter robust z-score
SHTN1,-1.04
SHTN1,-0.45
SHTN1,0
SHTN1,0.64
SF3A1,2.44
SF3A1,-0.11
SF3A1,0.09
SF3A1,-0.93
OPALIN,2.14
OPALIN,-0.32
OPALIN,-0.53
OPALIN,-0.93
LBX1,-0.61
LBX1,-0.62
LBX1,-0.9
LBX1,-0.69
BCAS1,2.87 (active)
BCAS1,2.51
BCAS1,-0.03
BCAS1,-0.04
LCK,-0.73
LCK,-0.37
LCK,-0.75
RTKN2,0.86
RTKN2,1.33
RTKN2,0.72
RTKN2,0.24
NAIF1,-0.31
NAIF1,0.21
NAIF1,-0.12
NAIF1,-0.04
RFC2,-0.01
RFC2,-0.14
RFC2,-0.13
RFC2,0.17
CPA5,-0.21
CPA5,1.63
CPA5,-0.12
CPA5,0.33
TFB2M,5.1 (active)
TFB2M,0.34
TFB2M,0.36
TFB2M,1.01
CRY2,-1.7 (active)
CRY2,0.49
CRY2,0.57
CRY2,-0.33
IL1RAPL2,-0.87
IL1RAPL2,1.16
IL1RAPL2,-0.3
IL1RAPL2,0.52
SETD2,-0.43
SETD2,-0.26
SETD2,0.22
SETD2,0.78
SDCBP2,-0.74
SDCBP2,0.29
SDCBP2,-0.14
SDCBP2,0.31
SLC1A2,-0.49
SLC1A2,-0.81
SLC1A2,-1.17
SLC1A2,1.96
SLC18A2,-1.07
SLC18A2,-0.51
SLC18A2,-0.89
SLC18A2,-0.6
MRPL27,0.98
MRPL27,0.75
MRPL27,2.08
MRPL27,1.37
SHOC1,-0.29
SHOC1,0.07
SHOC1,-0.04
SHOC1,-0.05
SEC31A,2.74
SEC31A,4.9 (active)
SEC31A,2.15
SEC31A,-0.41
EXD3,0.46
EXD3,1.7
EXD3,-0.26
EXD3,0.27
NUP205,2.42
NUP205,0.59
NUP205,0.38
NUP205,0.27
AGAP1,-0.36
AGAP1,0.92
AGAP1,0.03
AGAP1,0.72
GSPT1,0.2
GSPT1,3.17 (active)
GSPT1,-0.62
GSPT1,-0.53
KLF9,1.31
KLF9,1.09
KLF9,0.61
KLF9,1.5
OR51M1,-1.47
OR51M1,-1.15
OR51M1,-1.33
OR51M1,-1.31
VCAM1,0.43
VCAM1,1.19
VCAM1,-0.12
VCAM1,0.97
AKR1E2,-1.18
AKR1E2,-0.21
AKR1E2,-0.83
AKR1E2,-0.04

Copied from the entries so far, 10 entries:
gene,TNF reporter robust z-score
NUP205,0.38
NUP205,0.27
AGAP1,-0.36
AGAP1,0.92
AGAP1,0.03
AGAP1,0.72
GSPT1,0.2
GSPT1,3.17 (active)
GSPT1,-0.62
GSPT1,-0.53
